PubChem BioAssay AID1259425, University of Nebraska Medical Center – 2018
This is an unselected part of about 14,000 reagents tested. Further read-outs or replicates are left out here. The record does not give: the time to read-out.

- Screen: 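Seek colon cancer weak points whose silencing resembles KSR1 loss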 (primary screen)
- Cells: HCT116 human colon cancer cells
- Reagent: siRNA pool against human genes, 50 nM siRNA
- Measured: 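mRNA of six signature genes measured together by branched-DNA assay after 50 nM siRNA pool, blank removed, divided by geometric mean of two housekeeping genes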
- Scale: BNIP3L mRNA: higher = more BNIP3L transcript after knockdown; NDRG1 mRNA: higher = more NDRG1 transcript after knockdown

CYSTM1
- BNIP3L mRNA, set 1: 0.143
- NDRG1 mRNA, set 1: 0.329

DUSP10
- BNIP3L mRNA, set 1: 0.0882
- NDRG1 mRNA, set 1: 0.0588

IMMT
- BNIP3L mRNA, set 1: 0.14
- NDRG1 mRNA, set 1: 0.101

BSND
- BNIP3L mRNA, set 1: 0.174
- NDRG1 mRNA, set 1: 0.151

CEP85
- BNIP3L mRNA, set 1: 0.0581
- NDRG1 mRNA, set 1: 0.116

RAB40A
- BNIP3L mRNA, set 1: 0.0929
- NDRG1 mRNA, set 1: 0.0664

AKR7A3
- BNIP3L mRNA, set 1: 0.0709
- NDRG1 mRNA, set 1: 0.186

ERCC6L2
- BNIP3L mRNA, set 1: 0.114
- NDRG1 mRNA, set 1: 0.108

ADAM32
- BNIP3L mRNA, set 1: 0.0988
- NDRG1 mRNA, set 1: 0.184

TSSK3
- BNIP3L mRNA, set 1: 0.0795
- NDRG1 mRNA, set 1: 0.064

CXCR6
- BNIP3L mRNA, set 1: 0.0708
- NDRG1 mRNA, set 1: 0.181

FHL1
- BNIP3L mRNA, set 1: 0.0883
- NDRG1 mRNA, set 1: 0.127

Quoted from the listing, 2 entries:
DUSP10
- BNIP3L mRNA, set 1: 0.0882
- NDRG1 mRNA, set 1: 0.0588

IMMT
- BNIP3L mRNA, set 1: 0.14
- NDRG1 mRNA, set 1: 0.101
